According to the supplement of paper PMC6078165:

Test system: MDAMB468
Assay: relative JC-1 red fluorescence (viability) vs pre-drug, coculture with fibroblast (fraction); higher = more viable cancer cells
Procedure: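 JC-1 labelled TNBC cells cocultured 1:1 (1,500 cells each) with CellTrace Violet stained primary or stromal fibroblasts in 384-well plates in FluoroBrite medium, treated with one of 42 anticancer drugs at 0.1, 1, 10 or 100 uM. JC-1 red fluorescence (mitochondrial integrity in cancer cells only) was read by plate reader every 8 h for 72 h. Values are normalised to each well's pre-drug value. The stock of one drug was tenfold lower, so its dose labels may be too high.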

CC[C@]1(O)C[C@@H]2CN(CCc3c([nH]c4ccccc34)[C@@](C(=O)OC)(c3cc4c(cc3OC)N(C)[C@H]3[C@@](O)(C(=O)OC)[C@H](OC(C)=O)[C@]5(CC)C=CCN6CC[C@]43[C@@H]65)C2)C1 [Vinblastine]
relative JC-1 red fluorescence
Conditions	8 h	16 h	24 h	32 h	40 h	48 h	56 h	64 h	72 h
10 µM, coculture fibroblast: C12385	0.8399	0.811	0.804	0.771	0.74	0.743	0.7077	0.673	0.6645
10 µM, coculture fibroblast: H6013	0.8116	0.8622	0.831	0.841	0.816	0.83358	0.8051	0.793	0.76
10 µM, coculture fibroblast: H6019	0.854	0.841	0.833	0.804	0.783	0.793	0.768	0.749	0.75
10 µM, coculture fibroblast: H6076	0.88	0.87	0.96	0.971	0.91	0.903	0.859	0.839	0.874
10 µM, coculture fibroblast: H6231	0.77449	0.919	0.872	0.857	0.818	0.795	0.74	0.727	0.711
10 µM, coculture fibroblast: HADF	0.8616	0.8807	0.838	0.865	0.804	0.805	0.778	0.769	0.772
10 µM, coculture fibroblast: HCFa	0.845	0.843	0.7985	0.793	0.744	0.745	0.706	0.682	0.659
10 µM, coculture fibroblast: HCPF	0.86	0.884	0.926	0.867	0.818	0.809	0.8526	0.835	0.742
10 µM, coculture fibroblast: HHSteC	0.867	0.881	0.858	0.849	0.817	0.834	0.775	0.753	0.723
10 µM, coculture fibroblast: HMF	0.805	0.9814	0.9525	0.9441	0.9031	0.8897	0.8476	0.8324	0.8
10 µM, coculture fibroblast: HPFa	0.874	0.883	0.863	0.827	0.816	0.836	0.79	0.799	0.746
10 µM, coculture fibroblast: HUF	0.914	0.868	0.854	0.8004	0.775	0.755	0.7294	0.7095	0.691
10 µM, coculture fibroblast: Hs5	0.94143	0.969	0.9422	0.9317	0.869	0.846	0.795	0.766	0.7881
10 µM, coculture fibroblast: Hs27A	0.8288	0.844	0.784	0.812	0.763	0.77	0.744	0.72	0.721
10 µM, coculture fibroblast: Hs343T	0.8537	0.9856	0.971	0.964	0.916	0.899	0.866	0.845	0.83
10 µM, coculture fibroblast: WS1	0.8465	0.809	0.778	0.736	0.691	0.663	0.629	0.59	0.577
100 µM, coculture fibroblast: C12385	0.869	0.732	0.428	0.221	0.156	0.133	0.0952	0.07	0.0528
100 µM, coculture fibroblast: H6013	0.82	0.722	0.476	0.323	0.2566	0.228	0.1814	0.153	0.103
100 µM, coculture fibroblast: H6019	0.913	0.753	0.472	0.32	0.251	0.222	0.186	0.161	0.148
100 µM, coculture fibroblast: H6076	0.878	0.8499	0.612	0.465	0.318	0.269	0.216	0.179	0.212
100 µM, coculture fibroblast: H6231	0.803	0.915	0.839	0.816	0.769	0.718	0.607	0.552	0.525
100 µM, coculture fibroblast: HADF	0.8635	0.8114	0.529	0.336	0.259	0.226	0.172	0.147	0.097
100 µM, coculture fibroblast: HCFa	0.851	0.898	0.6716	0.479	0.373	0.329	0.272	0.233	0.18
100 µM, coculture fibroblast: HCPF	0.913	0.828	0.943	0.93	0.949	0.945	0.907	0.871	0.855
100 µM, coculture fibroblast: HHSteC	0.8804	0.741	0.479	0.306	0.25	0.236	0.17	0.143	0.0959
100 µM, coculture fibroblast: HMF	0.945	0.777	0.784	0.811	0.933	0.84	0.947	0.919	0.908
100 µM, coculture fibroblast: HPFa	0.8874	0.9472	0.714	0.453	0.37	0.338	0.268	0.244	0.175
100 µM, coculture fibroblast: HUF	0.843	0.858	0.609	0.368	0.2552	0.217	0.164	0.144	0.123
100 µM, coculture fibroblast: Hs5	0.93	0.871	0.663	0.472	0.322	0.263	0.222	0.183	0.194
100 µM, coculture fibroblast: Hs27A	0.814	0.886	0.6	0.354	0.2565	0.223	0.1841	0.156	0.106
100 µM, coculture fibroblast: Hs343T	0.869	0.934	0.734	0.638	0.55	0.529	0.473	0.446	0.438
100 µM, coculture fibroblast: WS1	0.818	0.624	0.36	0.242	0.173	0.138	0.102	0.0747	0.063

Values are relative to the signal before dosing, not to a vehicle control; the signal also falls without drug.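 Fibroblast labels denote human fibroblasts, mainly primary ones from uterus (C12385, HUF), lung (H6013), bone (Hs27A), adrenal (HADF) and skin (WS1), plus mammary HMF and breast cancer-associated Hs343T. Cancer cells are basal-like or mesenchymal-like triple-negative breast cancer lines. A hit is a response shift exceeding 3x replicate standard deviation. The tissue of the other fibroblasts is not given here.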
